In article PMC5440411 one finds binding data, which are given here for one substance.

The chains behind the UniProt entries cited, without tags or fusion partners. Residues count along the entry.
UniProt P02545, residues 1-646: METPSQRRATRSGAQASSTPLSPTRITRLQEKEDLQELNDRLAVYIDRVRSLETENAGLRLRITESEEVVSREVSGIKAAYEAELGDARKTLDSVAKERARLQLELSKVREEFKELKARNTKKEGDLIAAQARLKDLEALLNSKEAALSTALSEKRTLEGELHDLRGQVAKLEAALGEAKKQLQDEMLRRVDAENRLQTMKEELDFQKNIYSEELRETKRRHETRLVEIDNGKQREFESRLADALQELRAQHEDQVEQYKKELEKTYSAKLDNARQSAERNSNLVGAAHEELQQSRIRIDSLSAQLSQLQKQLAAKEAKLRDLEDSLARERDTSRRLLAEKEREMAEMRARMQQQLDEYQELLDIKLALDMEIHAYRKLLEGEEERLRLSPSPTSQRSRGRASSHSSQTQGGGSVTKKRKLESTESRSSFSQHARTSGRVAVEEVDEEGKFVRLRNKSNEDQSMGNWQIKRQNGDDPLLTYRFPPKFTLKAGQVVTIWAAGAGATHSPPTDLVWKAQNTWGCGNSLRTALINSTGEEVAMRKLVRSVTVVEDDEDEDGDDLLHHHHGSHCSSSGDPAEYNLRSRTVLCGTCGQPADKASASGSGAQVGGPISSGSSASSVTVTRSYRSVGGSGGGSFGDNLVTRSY
UniProt P06241: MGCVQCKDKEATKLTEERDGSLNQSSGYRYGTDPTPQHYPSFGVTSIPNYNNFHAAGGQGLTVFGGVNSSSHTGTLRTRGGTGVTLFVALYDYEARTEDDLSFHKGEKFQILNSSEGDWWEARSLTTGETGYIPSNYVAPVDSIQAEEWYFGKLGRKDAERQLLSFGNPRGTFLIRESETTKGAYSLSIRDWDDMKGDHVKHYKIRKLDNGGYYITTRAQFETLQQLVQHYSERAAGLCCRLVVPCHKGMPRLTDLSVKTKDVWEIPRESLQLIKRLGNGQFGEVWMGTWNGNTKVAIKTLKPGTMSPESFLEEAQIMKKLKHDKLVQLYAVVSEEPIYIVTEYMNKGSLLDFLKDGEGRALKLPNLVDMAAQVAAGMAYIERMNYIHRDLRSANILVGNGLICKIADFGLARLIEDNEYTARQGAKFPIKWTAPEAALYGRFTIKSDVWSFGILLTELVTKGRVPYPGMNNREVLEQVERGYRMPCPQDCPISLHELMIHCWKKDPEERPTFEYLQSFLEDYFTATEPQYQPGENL

The target in the experiment is A-type lamins (human (endogenous in HEK 293T)) (UniProt P02545). The experiment can be described thus: co-IP; IP with anti-lamin A/C antibody (ab-108922) and protein A/G agarose from HEK 293T lysates (50 mM HEPES pH 7.4, 150 mM NaCl, 1 mM MgCl2, 1% Triton X-100, 4 °C); blots with anti-actin, anti-Fyn and anti-lamin A/C; cells transfected 24 h before with miR-125a-3p mimic, anti-miR or scramble-miR, Fyn vector, DN-Fyn vector or empty vector.

No constants are given. Whether binding was seen depends on the method and setting. In cells and extracts the contact can be indirect.

Turning to “Fyn (from UniProt P06241 1-537) (enzyme)”, the binding entry is listed as “no binding”.
